The text below walks through data of the supplement of paper PMC10849652.

By UniProt entry, the sequences of proteins in these tests, tags left out. Where a name states a change or a piece, a line headed by the entry shows the natural chain unless it says otherwise.
UniProt Q96ED9: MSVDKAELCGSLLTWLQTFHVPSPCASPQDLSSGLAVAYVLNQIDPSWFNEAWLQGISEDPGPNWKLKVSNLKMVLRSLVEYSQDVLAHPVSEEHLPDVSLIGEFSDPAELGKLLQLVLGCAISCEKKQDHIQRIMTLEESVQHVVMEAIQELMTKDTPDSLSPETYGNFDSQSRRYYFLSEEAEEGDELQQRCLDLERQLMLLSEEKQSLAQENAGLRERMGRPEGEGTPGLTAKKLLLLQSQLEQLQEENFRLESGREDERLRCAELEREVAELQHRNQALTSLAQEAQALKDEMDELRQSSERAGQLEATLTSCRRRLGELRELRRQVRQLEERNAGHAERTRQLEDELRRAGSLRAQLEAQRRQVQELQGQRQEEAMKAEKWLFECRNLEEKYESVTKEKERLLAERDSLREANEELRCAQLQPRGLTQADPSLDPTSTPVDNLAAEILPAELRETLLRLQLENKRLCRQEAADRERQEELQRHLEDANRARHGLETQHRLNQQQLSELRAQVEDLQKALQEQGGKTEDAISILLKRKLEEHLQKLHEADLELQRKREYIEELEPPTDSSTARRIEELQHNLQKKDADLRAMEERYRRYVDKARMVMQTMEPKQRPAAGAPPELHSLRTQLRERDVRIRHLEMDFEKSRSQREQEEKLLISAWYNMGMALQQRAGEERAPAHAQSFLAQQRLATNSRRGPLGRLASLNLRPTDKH
UniProt P19367: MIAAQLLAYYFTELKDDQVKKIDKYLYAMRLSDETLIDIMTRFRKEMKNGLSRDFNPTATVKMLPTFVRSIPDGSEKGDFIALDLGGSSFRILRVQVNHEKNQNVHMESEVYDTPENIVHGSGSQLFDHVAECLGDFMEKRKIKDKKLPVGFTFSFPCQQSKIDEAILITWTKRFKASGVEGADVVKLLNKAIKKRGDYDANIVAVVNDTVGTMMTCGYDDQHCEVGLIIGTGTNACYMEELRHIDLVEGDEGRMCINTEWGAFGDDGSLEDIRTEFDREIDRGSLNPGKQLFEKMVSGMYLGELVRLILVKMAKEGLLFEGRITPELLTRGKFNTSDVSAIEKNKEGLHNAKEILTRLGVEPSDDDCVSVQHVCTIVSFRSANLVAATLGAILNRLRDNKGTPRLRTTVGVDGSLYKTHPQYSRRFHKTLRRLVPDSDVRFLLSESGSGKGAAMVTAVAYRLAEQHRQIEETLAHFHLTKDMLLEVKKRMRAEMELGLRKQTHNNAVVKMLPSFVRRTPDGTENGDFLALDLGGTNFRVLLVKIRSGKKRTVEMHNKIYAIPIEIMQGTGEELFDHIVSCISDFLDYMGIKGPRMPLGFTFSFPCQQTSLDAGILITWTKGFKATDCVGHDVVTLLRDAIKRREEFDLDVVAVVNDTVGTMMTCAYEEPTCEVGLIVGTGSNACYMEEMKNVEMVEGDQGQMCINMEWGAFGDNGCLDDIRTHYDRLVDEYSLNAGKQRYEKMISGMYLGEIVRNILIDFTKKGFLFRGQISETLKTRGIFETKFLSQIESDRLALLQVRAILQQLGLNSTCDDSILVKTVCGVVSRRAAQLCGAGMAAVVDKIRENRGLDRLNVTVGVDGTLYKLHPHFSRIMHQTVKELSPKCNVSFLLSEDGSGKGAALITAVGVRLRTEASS
UniProt Q8WVB3: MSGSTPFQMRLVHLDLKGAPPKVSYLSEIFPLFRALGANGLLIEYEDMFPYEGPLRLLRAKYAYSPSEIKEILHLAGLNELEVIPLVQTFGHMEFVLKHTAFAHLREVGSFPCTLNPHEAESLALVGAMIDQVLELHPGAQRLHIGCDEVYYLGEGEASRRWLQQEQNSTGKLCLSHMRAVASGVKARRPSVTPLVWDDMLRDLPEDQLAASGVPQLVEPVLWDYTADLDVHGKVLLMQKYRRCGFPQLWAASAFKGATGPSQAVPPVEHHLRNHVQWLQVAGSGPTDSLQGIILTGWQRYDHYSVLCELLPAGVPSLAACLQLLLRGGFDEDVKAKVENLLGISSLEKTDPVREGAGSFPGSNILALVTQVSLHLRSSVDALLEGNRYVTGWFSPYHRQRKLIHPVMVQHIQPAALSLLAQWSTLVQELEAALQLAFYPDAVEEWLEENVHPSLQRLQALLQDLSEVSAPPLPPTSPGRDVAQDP
UniProt P82970: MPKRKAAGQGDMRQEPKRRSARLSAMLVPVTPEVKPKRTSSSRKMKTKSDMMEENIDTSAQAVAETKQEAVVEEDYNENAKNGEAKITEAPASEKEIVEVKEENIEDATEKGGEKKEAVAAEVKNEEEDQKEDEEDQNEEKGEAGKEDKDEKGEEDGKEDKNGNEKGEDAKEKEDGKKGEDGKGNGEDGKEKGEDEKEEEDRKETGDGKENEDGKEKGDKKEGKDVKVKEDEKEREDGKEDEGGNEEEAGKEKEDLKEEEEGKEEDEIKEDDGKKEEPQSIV
UniProt Q8NBQ5: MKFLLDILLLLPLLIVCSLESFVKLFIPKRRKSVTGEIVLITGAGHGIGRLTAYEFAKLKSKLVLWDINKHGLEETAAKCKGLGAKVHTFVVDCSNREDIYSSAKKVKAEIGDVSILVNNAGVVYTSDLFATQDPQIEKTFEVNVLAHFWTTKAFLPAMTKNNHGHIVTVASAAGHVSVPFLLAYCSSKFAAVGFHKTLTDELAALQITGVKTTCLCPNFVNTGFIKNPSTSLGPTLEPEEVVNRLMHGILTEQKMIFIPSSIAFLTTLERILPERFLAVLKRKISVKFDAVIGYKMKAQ
UniProt P15428: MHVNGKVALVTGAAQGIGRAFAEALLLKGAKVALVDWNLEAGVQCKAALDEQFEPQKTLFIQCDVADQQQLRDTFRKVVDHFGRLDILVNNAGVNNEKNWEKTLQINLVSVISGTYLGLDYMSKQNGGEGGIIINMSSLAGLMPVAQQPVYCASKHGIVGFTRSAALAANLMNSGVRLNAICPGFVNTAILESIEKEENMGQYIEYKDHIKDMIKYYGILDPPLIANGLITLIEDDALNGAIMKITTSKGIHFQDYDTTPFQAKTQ
UniProt Q15011: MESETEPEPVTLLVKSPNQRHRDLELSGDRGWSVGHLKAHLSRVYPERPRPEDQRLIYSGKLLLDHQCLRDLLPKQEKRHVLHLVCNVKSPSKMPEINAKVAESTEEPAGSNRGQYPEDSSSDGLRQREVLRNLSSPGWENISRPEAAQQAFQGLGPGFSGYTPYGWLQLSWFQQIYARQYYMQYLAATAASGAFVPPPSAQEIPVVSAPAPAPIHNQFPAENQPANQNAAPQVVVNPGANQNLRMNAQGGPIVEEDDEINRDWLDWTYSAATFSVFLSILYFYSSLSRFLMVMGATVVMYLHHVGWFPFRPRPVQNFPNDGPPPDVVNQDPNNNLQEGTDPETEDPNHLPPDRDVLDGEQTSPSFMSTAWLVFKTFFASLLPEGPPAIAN
UniProt Q9Y241: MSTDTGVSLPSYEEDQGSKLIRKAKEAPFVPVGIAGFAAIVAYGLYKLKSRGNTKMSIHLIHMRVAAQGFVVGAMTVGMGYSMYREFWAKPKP
UniProt Q86YV9: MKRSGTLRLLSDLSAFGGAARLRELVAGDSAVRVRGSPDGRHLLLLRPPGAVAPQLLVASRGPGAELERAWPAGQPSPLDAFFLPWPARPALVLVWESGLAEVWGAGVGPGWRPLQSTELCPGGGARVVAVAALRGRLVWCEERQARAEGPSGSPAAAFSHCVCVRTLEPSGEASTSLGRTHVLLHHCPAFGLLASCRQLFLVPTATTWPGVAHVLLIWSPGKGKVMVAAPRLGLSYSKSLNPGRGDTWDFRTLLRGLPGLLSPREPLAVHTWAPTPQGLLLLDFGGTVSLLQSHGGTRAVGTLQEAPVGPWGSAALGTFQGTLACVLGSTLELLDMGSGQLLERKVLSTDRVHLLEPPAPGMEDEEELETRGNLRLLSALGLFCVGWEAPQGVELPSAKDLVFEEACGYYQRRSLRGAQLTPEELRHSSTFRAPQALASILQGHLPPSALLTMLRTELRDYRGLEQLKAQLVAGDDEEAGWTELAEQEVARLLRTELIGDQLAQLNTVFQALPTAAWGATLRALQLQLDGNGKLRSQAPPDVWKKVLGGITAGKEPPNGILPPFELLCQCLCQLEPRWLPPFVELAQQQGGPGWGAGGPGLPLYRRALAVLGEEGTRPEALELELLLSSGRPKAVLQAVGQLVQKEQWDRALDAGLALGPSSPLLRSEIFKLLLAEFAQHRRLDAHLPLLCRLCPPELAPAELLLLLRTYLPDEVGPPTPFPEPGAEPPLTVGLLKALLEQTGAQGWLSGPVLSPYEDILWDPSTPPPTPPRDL
UniProt Q53FT3: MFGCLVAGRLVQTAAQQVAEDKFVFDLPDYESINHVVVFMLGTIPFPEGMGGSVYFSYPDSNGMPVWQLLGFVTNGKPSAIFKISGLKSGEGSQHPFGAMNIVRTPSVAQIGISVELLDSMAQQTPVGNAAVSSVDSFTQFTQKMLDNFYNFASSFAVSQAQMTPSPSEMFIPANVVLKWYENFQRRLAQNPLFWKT
UniProt Q6NVY1: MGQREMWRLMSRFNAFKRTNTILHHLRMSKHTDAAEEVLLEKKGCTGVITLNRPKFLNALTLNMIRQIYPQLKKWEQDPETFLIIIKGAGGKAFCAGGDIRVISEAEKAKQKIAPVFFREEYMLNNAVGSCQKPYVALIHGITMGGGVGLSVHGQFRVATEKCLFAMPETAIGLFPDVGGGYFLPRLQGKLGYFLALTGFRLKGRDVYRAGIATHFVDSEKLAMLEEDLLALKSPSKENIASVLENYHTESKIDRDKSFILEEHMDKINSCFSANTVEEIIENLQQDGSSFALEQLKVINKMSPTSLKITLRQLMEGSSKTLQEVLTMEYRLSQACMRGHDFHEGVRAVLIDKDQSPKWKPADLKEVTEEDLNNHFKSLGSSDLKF
UniProt Q3SXM5: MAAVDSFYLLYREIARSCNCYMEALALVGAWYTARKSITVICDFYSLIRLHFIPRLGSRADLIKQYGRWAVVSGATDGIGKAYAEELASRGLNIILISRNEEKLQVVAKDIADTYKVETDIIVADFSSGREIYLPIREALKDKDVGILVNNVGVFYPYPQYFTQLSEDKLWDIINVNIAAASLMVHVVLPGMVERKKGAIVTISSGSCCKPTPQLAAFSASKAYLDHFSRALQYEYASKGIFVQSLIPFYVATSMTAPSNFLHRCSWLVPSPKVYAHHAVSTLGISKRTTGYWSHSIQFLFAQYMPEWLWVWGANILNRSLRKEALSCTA
UniProt Q04756: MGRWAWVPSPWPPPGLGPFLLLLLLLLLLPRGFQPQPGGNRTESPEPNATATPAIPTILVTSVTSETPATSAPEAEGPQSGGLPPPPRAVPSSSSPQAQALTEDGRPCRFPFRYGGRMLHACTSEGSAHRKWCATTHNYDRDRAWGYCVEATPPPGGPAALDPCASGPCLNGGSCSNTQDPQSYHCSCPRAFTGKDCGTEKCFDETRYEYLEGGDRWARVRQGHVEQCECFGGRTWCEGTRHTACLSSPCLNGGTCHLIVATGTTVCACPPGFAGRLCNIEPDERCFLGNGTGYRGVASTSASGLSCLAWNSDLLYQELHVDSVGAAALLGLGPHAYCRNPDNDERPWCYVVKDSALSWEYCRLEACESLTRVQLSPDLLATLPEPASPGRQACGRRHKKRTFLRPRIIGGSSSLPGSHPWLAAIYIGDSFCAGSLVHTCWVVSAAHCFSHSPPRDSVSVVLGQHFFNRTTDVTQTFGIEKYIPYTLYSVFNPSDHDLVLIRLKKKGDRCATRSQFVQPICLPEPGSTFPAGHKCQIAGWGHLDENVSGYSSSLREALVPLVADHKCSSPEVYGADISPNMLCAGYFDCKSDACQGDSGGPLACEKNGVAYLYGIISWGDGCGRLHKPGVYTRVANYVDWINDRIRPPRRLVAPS
UniProt P51659: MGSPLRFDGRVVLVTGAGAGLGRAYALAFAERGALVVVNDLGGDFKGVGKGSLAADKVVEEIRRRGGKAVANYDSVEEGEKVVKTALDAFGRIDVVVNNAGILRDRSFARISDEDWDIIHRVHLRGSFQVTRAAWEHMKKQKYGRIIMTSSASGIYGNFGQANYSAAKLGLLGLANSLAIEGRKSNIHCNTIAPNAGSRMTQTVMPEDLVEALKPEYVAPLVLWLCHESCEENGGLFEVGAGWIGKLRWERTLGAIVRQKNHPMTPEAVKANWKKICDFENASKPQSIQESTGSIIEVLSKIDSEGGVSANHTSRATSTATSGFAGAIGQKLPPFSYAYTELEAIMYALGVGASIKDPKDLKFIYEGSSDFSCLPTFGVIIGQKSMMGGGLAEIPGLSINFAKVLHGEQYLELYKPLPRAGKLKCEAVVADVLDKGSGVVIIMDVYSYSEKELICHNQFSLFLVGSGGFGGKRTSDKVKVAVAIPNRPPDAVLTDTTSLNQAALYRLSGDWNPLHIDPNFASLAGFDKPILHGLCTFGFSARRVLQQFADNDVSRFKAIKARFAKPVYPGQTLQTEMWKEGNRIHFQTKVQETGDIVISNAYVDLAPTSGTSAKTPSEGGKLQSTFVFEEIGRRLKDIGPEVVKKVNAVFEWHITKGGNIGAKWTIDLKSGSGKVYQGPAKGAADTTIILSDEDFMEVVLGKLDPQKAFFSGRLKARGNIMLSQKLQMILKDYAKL

Some of the results follow.

Compound in this assay: c1ccc([C@@H]2C[C@H]2NC2CCNCC2)cc1
The assay can be described thus: log2 fold change, soluble protein after heating vs DMSO (PISA); higher = thermal stabilisation; K562 lysate, 10 uM; active = over 0.2 and 3.5 SD of the protein, either way, in both replicates (recomputed). An outline of the steps: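 To prepare the extract, K562 pellets were dounce-homogenised in PBS pH 7.4 with 1 mM MgCl2, giving crude material at 1 mg/mL protein. This was treated with 10 μM compound for 30 min, then heated in aliquots for 3 min over 48°C-58°C before pooling and addition of NP-40 to 0.5% at 4°C. Centrifugation at 21,000xg for 90 min left soluble protein in the supernatant, which TMTpro 16plex LC-MS/MS quantified with equalised channel sums. Results are log-two fold changes in thermal stability compared with solvent controls, from duplicates.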
Regarding HMCN1 (UniProt Q96RW7), the log2 fold change was inactive: 0.146.
HIRA (UniProt P54198): the log2 fold change is inactive: -0.039.
The figure for HOOK2 (UniProt Q96ED9) is inactive: 0.16; for HK1 isoform 2 (UniProt P19367) it is inactive: 0.016; for HEXD isoform 2 (UniProt Q8WVB3) it is inactive: -0.05.
Consider HMGN5 (UniProt P82970), for which the log2 fold change is inactive: 0.083.
Under HSF2 (UniProt Q03933) stands inactive: -0.056; under HSP90AA4P (UniProt Q58FG1), inactive: -0.308; under HNMT (UniProt P50135), inactive: -0.118.
Under HPS3 (UniProt Q969F9) stands inactive: 0.105; under HOOK1 (UniProt Q9UJC3), inactive: -0.211.
Under HP (UniProt P00738) stands inactive: -0.069; under HSD17B11 (UniProt Q8NBQ5), inactive: -0.009; under HOMER3 (UniProt Q9NSC5), inactive: 0.
Take HES1 (UniProt Q14469): the log2 fold change was inactive: -0.097.
Under HPGD (UniProt P15428) stands inactive: 0.232; under HERPUD1 (UniProt Q15011), inactive: -0.022.
Under HIGD1A isoform 2 (UniProt Q9Y241) stands inactive: 0.049; under HPS6 (UniProt Q86YV9), inactive: 0.122; under HNRNPUL1 (UniProt M0R247), inactive: -0.044.
The figure for HIKESHI (UniProt Q53FT3) is inactive: 0.044.
Take HGF (UniProt P14210): the log2 fold change was inactive: 0.085.
Under HMGA1 isoform 2 (UniProt P17096) stands inactive: 0.419; under HMGN3 (UniProt Q15651), inactive: -0.086.
Under HP1BP3 (UniProt Q5SSJ5) stands inactive: -0.021; under HIBCH (UniProt Q6NVY1), inactive: 0.033.
The figure for HSDL1 (UniProt Q3SXM5) is inactive: -0.06.
With HIGD2A (UniProt Q9BW72), the log2 fold change is inactive: -0.049.
Regarding HGFAC (UniProt Q04756), the log2 fold change was inactive: -0.158.
Under HSD17B4 (UniProt P51659) stands inactive: 0.007.
